PubChem BioAssay AID1259314 – Drosophila RNAi Screening Center – 2017

Aim: 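Modifiers of manganese chloride toxicity in fly cells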 (primary screen)
System: Drosophila S2R+ cells
Reagent: long dsRNA against Drosophila genes
Time to read-out: 5 days (4 days knock-down, then 1 day metal exposure)
Treatment: manganese chloride added to 15 mM for 24 hours
Read-out: 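Luciferase ATP signal used as a proxy for viable cell number, reported as one averaged z-score per dsRNA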
Reading the numbers: mean ATP z-score: higher = more ATP than the plate average, more viable cells under manganese
Rule for the call: 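a mean ATP z-score past 1.5 in either direction is called active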
Calls: active = strong ATP change, up or down; inactive = no strong ATP change
Here is one part, drawn at random, of about 3,100 reagents. In the full data, 289 (9.3%) are marked active. 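Active includes both higher and lower ATP than plate average; check the z-score sign for direction.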 Entries without a mark were called inactive. Not given: the amount of reagent.

With knock-down of wwk [DRSC01941], the screen gave mean ATP z-score -1.1. Silencing of CG8405 [DRSC07166] resulted in: mean ATP z-score 0.832. With knock-down of CG8405 [DRSC39857], the screen gave mean ATP z-score -1.08. Silencing of Ten-a [DRSC19864] resulted in: mean ATP z-score -0.257. Against Ten-a [DRSC20290] the deposit lists mean ATP z-score -0.094. For Mgtor [DRSC05958] the deposit lists mean ATP z-score -1.3.

After knock-down of Mgtor [DRSC39824] the results were mean ATP z-score -1.46. pll [DRSC17026] scored mean ATP z-score 0.515. After knock-down of pll [DRSC28551], the record shows mean ATP z-score 0.158. Scgalpha [DRSC03076] scored mean ATP z-score -0.732. For Scgalpha [DRSC29625], the values are mean ATP z-score 0.0897. Knock-down of Pkd2 [DRSC02962] resulted in: mean ATP z-score 0.33.

After knock-down of Pkd2 [DRSC27522], the record shows mean ATP z-score 0.0847. After knock-down of shg [DRSC04714], the record shows mean ATP z-score -0.475. shg [DRSC38948] scored mean ATP z-score -0.0802. AQP [DRSC06122] showed mean ATP z-score -0.452. Against AQP [DRSC39533] the deposit lists mean ATP z-score -0.485.

Sorted by “mean ATP z-score” (descending): 4 of the entries above.
shg [DRSC38948]: mean ATP z-score = -0.0802
AQP [DRSC06122]: mean ATP z-score = -0.452
shg [DRSC04714]: mean ATP z-score = -0.475
AQP [DRSC39533]: mean ATP z-score = -0.485

Additional entries follow.
With knock-down of PIG-F [DRSC11069], the record shows mean ATP z-score -0.693. After knock-down of PIG-F [DRSC27027], the record shows mean ATP z-score 0.0864. Knock-down of MFS15 [DRSC06523] came out at: mean ATP z-score 0.123. Depletion of MFS15 [DRSC28274] came out at: mean ATP z-score 3.23 (active). With knock-down of Egfr [DRSC03871], the screen gave mean ATP z-score -0.128. Knock-down of Egfr [DRSC04613] came out at: mean ATP z-score -0.445.

For Egfr [DRSC36621], the values are mean ATP z-score 0.0501. Egfr [DRSC36622] showed mean ATP z-score -0.41. Chs2 [DRSC11830] gave mean ATP z-score -1.31. For Chs2 [DRSC39425], the entry reads mean ATP z-score -0.694. After knock-down of CG7255 [DRSC10790], the record shows mean ATP z-score -0.489. After knock-down of CG10505 [DRSC04075], the screen gave mean ATP z-score 0.665.

Depletion of CG10505 [DRSC39815] came out at: mean ATP z-score 0.76. CG12783 [DRSC14538] scored mean ATP z-score 0.0403. With knock-down of Syt1 [DRSC00158] the results were mean ATP z-score 0.266. Syt1 [DRSC00840] scored mean ATP z-score -0.834. With knock-down of Syt1 [DRSC22077], the screen gave mean ATP z-score -0.129. Syt1 [DRSC27456] gave mean ATP z-score -1.01.

Knock-down of CG6293 [DRSC16011] resulted in: mean ATP z-score 1.28. CG6293 [DRSC28774] showed mean ATP z-score 0.809. kar [DRSC14496] showed mean ATP z-score -0.344. kar [DRSC39488] gave mean ATP z-score -0.543. Tim17b1 [DRSC12179] gave mean ATP z-score -1.24. Tim17b1 [DRSC39766] showed mean ATP z-score -0.598.

Against galene [DRSC08640], the entry reads mean ATP z-score -0.327. Against galene [DRSC08641], the values are mean ATP z-score -0.214. With knock-down of Drip [DRSC07405] the results were mean ATP z-score 1.17. CG3078 [DRSC39707] showed mean ATP z-score 0.552. For CG3078 [DRSC39834], the entry reads mean ATP z-score -0.925. For sand [DRSC07245], the entry reads mean ATP z-score 0.155.

After knock-down of sand [DRSC39678] the results were mean ATP z-score -0.0617.
